Data as given in the supplement of paper PMC11659162.
Values joined by “and” are separate entries in the source; they are usually repeats but may differ in a detail not shown here. Identical values can stand only once. This is one part of the list. Single values of this set are uncertain.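 The cells are a human neuroglioma line carrying a green fluorescent autophagy reporter.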

Key:
H4 GFP-LC3 [1] = experiment: cell viability (scaled to control) (fraction of control); higher = more viable cells; conditions: 5 µM
H4 GFP-LC3 [2] = experiment: ACBP immunofluorescence intensity (scaled to control) (AU (scaled)); higher = more intracellular ACBP/DBI; conditions: 5 µM

C[N+]1(C)CCN(c2ccccc2)CC1
cell viability (H4 GFP-LC3 [1]; 6 h): 1.06
cell viability (H4 GFP-LC3 [1]; 24 h): 1.04
ACBP immunofluorescence intensity (H4 GFP-LC3 [2]; 6 h): 0.918
ACBP immunofluorescence intensity (H4 GFP-LC3 [2]; 24 h): 0.633

O=C(CCCN1CCC2(CC1)C(=O)N(Cc1cccc(F)c1)CN2c1ccccc1)c1ccc(F)cc1
cell viability (H4 GFP-LC3 [1]; 6 h): 0.815
cell viability (H4 GFP-LC3 [1]; 24 h): 0.822
ACBP immunofluorescence intensity (H4 GFP-LC3 [2]; 6 h): 0.943
ACBP immunofluorescence intensity (H4 GFP-LC3 [2]; 24 h): 0.785

O=C(O)Cc1cccnc1C(=O)O
cell viability (H4 GFP-LC3 [1]; 6 h): 1.11
cell viability (H4 GFP-LC3 [1]; 24 h): 1.07
ACBP immunofluorescence intensity (H4 GFP-LC3 [2]; 6 h): 0.88
ACBP immunofluorescence intensity (H4 GFP-LC3 [2]; 24 h): 0.443

C=C(C)CN1CC[C@]23c4c5ccc(O)c4O[C@H]2c2[nH]c4ccccc4c2C[C@@]3(O)[C@H]1C5
cell viability (H4 GFP-LC3 [1]; 6 h): 0.991
cell viability (H4 GFP-LC3 [1]; 24 h): 1.37
ACBP immunofluorescence intensity (H4 GFP-LC3 [2]; 6 h): 0.818
ACBP immunofluorescence intensity (H4 GFP-LC3 [2]; 24 h): 0.869

CCCN1CCC[C@@H]2Cc3n[nH]cc3C[C@H]21
cell viability (H4 GFP-LC3 [1]; 6 h): 0.812
cell viability (H4 GFP-LC3 [1]; 24 h): 1.25
ACBP immunofluorescence intensity (H4 GFP-LC3 [2]; 6 h): 0.968
ACBP immunofluorescence intensity (H4 GFP-LC3 [2]; 24 h): 0.86

N[C@H](C(=O)O)c1cc(O)no1
cell viability (H4 GFP-LC3 [1]; 6 h): 1.01
cell viability (H4 GFP-LC3 [1]; 24 h): 1.3
ACBP immunofluorescence intensity (H4 GFP-LC3 [2]; 6 h): 0.907
ACBP immunofluorescence intensity (H4 GFP-LC3 [2]; 24 h): 0.665

O=C(Cc1ccc(Cl)c(Cl)c1)N1CCCCC1CN1CCCC1 (centres undefined)
cell viability (H4 GFP-LC3 [1]; 6 h): 1
cell viability (H4 GFP-LC3 [1]; 24 h): 0.995
ACBP immunofluorescence intensity (H4 GFP-LC3 [2]; 6 h): 0.925
ACBP immunofluorescence intensity (H4 GFP-LC3 [2]; 24 h): 0.85

CCCN(CCC)C1Cc2cc(OC)c(OC)cc2C1
cell viability (H4 GFP-LC3 [1]; 6 h): 0.917
cell viability (H4 GFP-LC3 [1]; 24 h): 1.11
ACBP immunofluorescence intensity (H4 GFP-LC3 [2]; 6 h): 0.611
ACBP immunofluorescence intensity (H4 GFP-LC3 [2]; 24 h): 0.514

CN(C(=O)Cc1ccc(Cl)c(Cl)c1)[C@H](CN1CCCC1)c1ccccc1
cell viability (H4 GFP-LC3 [1]; 6 h): 1.03
cell viability (H4 GFP-LC3 [1]; 24 h): 1.08
ACBP immunofluorescence intensity (H4 GFP-LC3 [2]; 6 h): 0.735
ACBP immunofluorescence intensity (H4 GFP-LC3 [2]; 24 h): 0.762

C=CCN1CC[C@@]2(C)c3cc(O)ccc3C[C@@H]1C2C (single isomer, unassigned; (+))
cell viability (H4 GFP-LC3 [1]; 6 h): 1.01
cell viability (H4 GFP-LC3 [1]; 24 h): 1.04
ACBP immunofluorescence intensity (H4 GFP-LC3 [2]; 6 h): 0.718
ACBP immunofluorescence intensity (H4 GFP-LC3 [2]; 24 h): 0.828

CC[C@@H](CO)NC(=O)[C@@H]1C=C2c3cccc4[nH]cc(c34)C[C@H]2N(C)C1
cell viability (H4 GFP-LC3 [1]; 6 h): 0.698
cell viability (H4 GFP-LC3 [1]; 24 h): 0.927
ACBP immunofluorescence intensity (H4 GFP-LC3 [2]; 6 h): 1
ACBP immunofluorescence intensity (H4 GFP-LC3 [2]; 24 h): 0.878

CC[C@@H](CO)NC(=O)[C@@H]1C=C2c3cccc4c3c(cn4C)C[C@H]2N(C)C1
cell viability (H4 GFP-LC3 [1]; 6 h): 0.663
cell viability (H4 GFP-LC3 [1]; 24 h): 1
ACBP immunofluorescence intensity (H4 GFP-LC3 [2]; 6 h): 1
ACBP immunofluorescence intensity (H4 GFP-LC3 [2]; 24 h): 0.859

CCCN(CCC)C1CCc2ccc(O)cc2C1 (centres undefined)
cell viability (H4 GFP-LC3 [1]; 6 h): 0.75
cell viability (H4 GFP-LC3 [1]; 24 h): 1.05
ACBP immunofluorescence intensity (H4 GFP-LC3 [2]; 6 h): 0.921
ACBP immunofluorescence intensity (H4 GFP-LC3 [2]; 24 h): 0.598

CSCC[C@H](NC(=O)[C@H](Cc1ccccc1)NC(=O)CNC(=O)CNC(=O)[C@@H](N)Cc1ccc(O)cc1)C(N)=O
cell viability (H4 GFP-LC3 [1]; 6 h): 0.964
cell viability (H4 GFP-LC3 [1]; 24 h): 0.945
ACBP immunofluorescence intensity (H4 GFP-LC3 [2]; 6 h): 0.482
ACBP immunofluorescence intensity (H4 GFP-LC3 [2]; 24 h): 0.624

C=CCN1CCC2(C)c3cc(O)ccc3CC1C2C (racemic)
cell viability (H4 GFP-LC3 [1]; 6 h): 1.04
cell viability (H4 GFP-LC3 [1]; 24 h): 1.1
ACBP immunofluorescence intensity (H4 GFP-LC3 [2]; 6 h): 0.788
ACBP immunofluorescence intensity (H4 GFP-LC3 [2]; 24 h): 0.806

CN1C[C@H](C(=O)N[C@]2(C)O[C@@]3(O)[C@@H]4CCCN4C(=O)[C@H](Cc4ccccc4)N3C2=O)C[C@@H]2c3cccc4[nH]cc(c34)C[C@H]21
cell viability (H4 GFP-LC3 [1]; 6 h): 0.734
cell viability (H4 GFP-LC3 [1]; 24 h): 0.93
ACBP immunofluorescence intensity (H4 GFP-LC3 [2]; 6 h): 0.865
ACBP immunofluorescence intensity (H4 GFP-LC3 [2]; 24 h): 0.523

CN(C(=O)Cc1ccccc1)[C@H](CN1CCCC1)c1ccccc1
cell viability (H4 GFP-LC3 [1]; 6 h): 0.948
cell viability (H4 GFP-LC3 [1]; 24 h): 1.05
ACBP immunofluorescence intensity (H4 GFP-LC3 [2]; 6 h): 0.861
ACBP immunofluorescence intensity (H4 GFP-LC3 [2]; 24 h): 0.891

CC[N+](CC)(CCCNC1=CC(=O)C(NCCC[N+](CC)(CC)Cc2ccccc2)=CC1=O)Cc1ccccc1
cell viability (H4 GFP-LC3 [1]; 6 h): 1
cell viability (H4 GFP-LC3 [1]; 24 h): 1.12
ACBP immunofluorescence intensity (H4 GFP-LC3 [2]; 6 h): 0.851
ACBP immunofluorescence intensity (H4 GFP-LC3 [2]; 24 h): 0.544

c1ccc(C2CC2)c(OCC2=NCCN2)c1
cell viability (H4 GFP-LC3 [1]; 6 h): 0.906
cell viability (H4 GFP-LC3 [1]; 24 h): 1
ACBP immunofluorescence intensity (H4 GFP-LC3 [2]; 6 h): 0.859
ACBP immunofluorescence intensity (H4 GFP-LC3 [2]; 24 h): 0.431

NCCCP(=O)(O)CC1CCCCC1
cell viability (H4 GFP-LC3 [1]; 6 h): 0.931
cell viability (H4 GFP-LC3 [1]; 24 h): 1.17
ACBP immunofluorescence intensity (H4 GFP-LC3 [2]; 6 h): 0.884
ACBP immunofluorescence intensity (H4 GFP-LC3 [2]; 24 h): 0.464

CN(C)C(=O)Oc1cccc([N+](C)(C)C)c1
cell viability (H4 GFP-LC3 [1]; 6 h): 0.935
cell viability (H4 GFP-LC3 [1]; 24 h): 1.39
ACBP immunofluorescence intensity (H4 GFP-LC3 [2]; 6 h): 0.995
ACBP immunofluorescence intensity (H4 GFP-LC3 [2]; 24 h): 0.783

C=CCN1C[C@H](C)N([C@H](c2ccc(C(=O)N(CC)CC)cc2)c2cccc(OC)c2)C[C@H]1C
cell viability (H4 GFP-LC3 [1]; 6 h): 1.1
cell viability (H4 GFP-LC3 [1]; 24 h): 1.11
ACBP immunofluorescence intensity (H4 GFP-LC3 [2]; 6 h): 0.735
ACBP immunofluorescence intensity (H4 GFP-LC3 [2]; 24 h): 0.705

CCOC(OCC)P(=O)(O)CCCN
cell viability (H4 GFP-LC3 [1]; 6 h): 0.949
cell viability (H4 GFP-LC3 [1]; 24 h): 1.17
ACBP immunofluorescence intensity (H4 GFP-LC3 [2]; 6 h): 0.891
ACBP immunofluorescence intensity (H4 GFP-LC3 [2]; 24 h): 0.452

CCN1C[C@]2(COC)CC[C@H](OC)[C@]34C5C[C@@H]6[C@@H](OC)C[C@@]7(OCO[C@@]7(C13)[C@@H](O)C24)C5[C@H]6OC (some centres undefined)
cell viability (H4 GFP-LC3 [1]; 6 h): 0.815
cell viability (H4 GFP-LC3 [1]; 24 h): 0.913
ACBP immunofluorescence intensity (H4 GFP-LC3 [2]; 6 h): 0.994
ACBP immunofluorescence intensity (H4 GFP-LC3 [2]; 24 h): 0.414

CCC1(C2=NCCN2)Cc2ccccc2O1 (centres undefined)
cell viability (H4 GFP-LC3 [1]; 6 h): 0.714
cell viability (H4 GFP-LC3 [1]; 24 h): 0.839
ACBP immunofluorescence intensity (H4 GFP-LC3 [2]; 6 h): 0.879
ACBP immunofluorescence intensity (H4 GFP-LC3 [2]; 24 h): 0.643

CCCN(CCC)C1CCc2cccc(O)c2C1 (centres undefined)
cell viability (H4 GFP-LC3 [1]; 6 h): 0.71
cell viability (H4 GFP-LC3 [1]; 24 h): 0.856
ACBP immunofluorescence intensity (H4 GFP-LC3 [2]; 6 h): 0.998
ACBP immunofluorescence intensity (H4 GFP-LC3 [2]; 24 h): 0.877

CC(C)C[C@H](NC(=O)[C@H](Cc1ccccc1)NC(=O)CNC(=O)[C@@H](CO)NC(=O)[C@@H](N)Cc1ccc(O)cc1)C(=O)N[C@H](C(=O)O)[C@@H](C)O
cell viability (H4 GFP-LC3 [1]; 6 h): 0.881
cell viability (H4 GFP-LC3 [1]; 24 h): 1.22
ACBP immunofluorescence intensity (H4 GFP-LC3 [2]; 6 h): 0.894
ACBP immunofluorescence intensity (H4 GFP-LC3 [2]; 24 h): 0.918

CCCN1CCO[C@@H]2c3cc(O)ccc3OC[C@H]21
cell viability (H4 GFP-LC3 [1]; 6 h): 0.936
cell viability (H4 GFP-LC3 [1]; 24 h): 1.14
ACBP immunofluorescence intensity (H4 GFP-LC3 [2]; 6 h): 0.499
ACBP immunofluorescence intensity (H4 GFP-LC3 [2]; 24 h): 0.507

CNCCc1ccc(O)c(O)c1
cell viability (H4 GFP-LC3 [1]; 6 h): 0.717
cell viability (H4 GFP-LC3 [1]; 24 h): 1.24
ACBP immunofluorescence intensity (H4 GFP-LC3 [2]; 6 h): 0.935
ACBP immunofluorescence intensity (H4 GFP-LC3 [2]; 24 h): 0.858

COc1ccc2c(c1OC)C(=O)O[C@H]2[C@@H]1c2cc3c(cc2CCN1C)OCO3
cell viability (H4 GFP-LC3 [1]; 6 h): 0.772
cell viability (H4 GFP-LC3 [1]; 24 h): 0.944
ACBP immunofluorescence intensity (H4 GFP-LC3 [2]; 6 h): 0.943
ACBP immunofluorescence intensity (H4 GFP-LC3 [2]; 24 h): 0.466

CC(C)C[C@H](NC(=O)[C@H](Cc1ccccc1)NC(=O)CNC(=O)CNC(=O)[C@@H](N)Cc1ccc(O)cc1)C(N)=O
cell viability (H4 GFP-LC3 [1]; 6 h): 1.2 and 1.11
cell viability (H4 GFP-LC3 [1]; 24 h): 1.02 and 0.8
ACBP immunofluorescence intensity (H4 GFP-LC3 [2]; 6 h): 0.75 and 0.497
ACBP immunofluorescence intensity (H4 GFP-LC3 [2]; 24 h): 0.853 and 0.469
